In patent publication US6967192B2, “Seventeen amino acid peptide (Peptide P) for treating ischemia and reperfusion injury” (University of Kentucky Research Foundation, priority 2001, dated 2005):

Tested on: murine model of ischemia/reperfusion injury (cerebral ischemia)
Experiment: Murine ischemia/reperfusion model: cerebral blood flow by laser-Doppler flowmetry

Tyr-D-Ala-Phe-Ala-Asp-Val-Ala-Ser-Thr-Ile-Gly-Asp-Phe-Phe-His-Ser-Ile-NH2 (AFADVASTIGDFFHSI; D-Ala, C-terminal amide; printed: Ala-Phe-Ala-Asp-Val-Ala-Ser-Thr-Ile-Gly-Asp-Phe-Phe-His-Ser-Ile-) [Peptide P]
time for cerebral blood flow to return to baseline levels after cessation of ischemia (after 1 hour MCAO): ≤ 0.5 h
reduction in cerebral blood flow upon induction of ischemia (sustained for 1 hour during the ischemia, same in control animals): 25%
